According to publication PMC5500279, “High-throughput electrophysiological assays for voltage gated ion channels using SyncroPatch 768PE” (PLoS ONE, 2017):
pIC50: −log10 of the molar value. “And” between values parts separate entries of the source, which are not always exact repeats. Equal values may be shown once.

Sequences of proteins named here, by UniProt entry; tags and fusion partners are left off.
UniProt P15384, whole entry: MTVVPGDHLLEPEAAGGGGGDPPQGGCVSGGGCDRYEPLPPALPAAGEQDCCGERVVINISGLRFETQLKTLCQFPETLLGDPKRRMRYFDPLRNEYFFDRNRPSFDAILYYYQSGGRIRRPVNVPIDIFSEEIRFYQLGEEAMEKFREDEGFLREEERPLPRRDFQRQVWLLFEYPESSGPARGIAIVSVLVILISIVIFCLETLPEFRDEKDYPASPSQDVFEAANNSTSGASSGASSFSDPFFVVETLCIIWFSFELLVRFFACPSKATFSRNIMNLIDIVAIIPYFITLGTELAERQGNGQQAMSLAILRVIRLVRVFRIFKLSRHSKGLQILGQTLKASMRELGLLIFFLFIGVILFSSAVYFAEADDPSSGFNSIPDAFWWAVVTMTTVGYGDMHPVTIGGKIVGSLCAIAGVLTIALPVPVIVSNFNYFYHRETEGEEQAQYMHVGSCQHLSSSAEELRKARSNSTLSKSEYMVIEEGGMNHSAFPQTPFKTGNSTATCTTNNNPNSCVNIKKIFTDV

Molecular target: Kv1.3 (Rattus norvegicus, UniProt P15384)

CC[C@H](C)[C@@H]1NC(=O)[C@@H](NC(=O)[C@H](CO)NC(=O)[C@@H](N)CCCNC(=N)N)CSSC[C@@H](C(=O)O)NC(=O)[C@H]([C@@H](C)O)NC(=O)CNC(=O)[C@@H]2CSSC[C@@H]3NC(=O)[C@H](CCC(N)=O)NC(=O)[C@H](Cc4ccccc4)NC(=O)[C@H](C)NC(=O)[C@H]([C@@H](C)O)NC(=O)[C@H](CSSC[C@H](NC(=O)[C@H](Cc4ccccc4)NC(=O)[C@H](CO)NC(=O)[C@H](CC(C)C)NC(=O)[C@H](CCCNC(=N)N)NC(=O)[C@H](Cc4ccc(O)cc4)NC(=O)[C@H](CCCCN)NC(=O)[C@H](CCSC)NC(=O)[C@H](CO)NC(=O)[C@H](Cc4cnc[nH]4)NC(=O)[C@H](CCCCN)NC3=O)C(=O)N[C@@H](CCCNC(=N)N)C(=O)N[C@@H](CCCCN)C(=O)N[C@@H]([C@@H](C)O)C(=O)N2)NC(=O)[C@H](CCCNC(=N)N)NC(=O)[C@H](CO)NC(=O)[C@H](CCCCN)NC(=O)[C@@H]2CCCN2C(=O)[C@H]([C@@H](C)CC)NC(=O)[C@H]([C@@H](C)O)NC(=O)[C@H](CC(=O)O)NC1=O [ShK]
ShK sensitive current in Kcna3-/- T cells: no Shk sensitive current was detected | WT T cell K+ current blocked: 89% | pIC50 (read-out: IC50 Kv1.3 inhibition): 10.96 and 10.95
